Results taken from the supplement of paper PMC4604168 (melanoma cell lines).
This is one part of the list. Many values rest on one well or one pass, so single values are uncertain.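 Imaging used 1,536-well plates; nuclei positive for cleaved PARP by antibody were divided by total DNA-stained nuclei to yield the apoptosis fraction. Doses for screening kept most cells viable, and cell lines differ markedly in resting and induced cleaved-PARP levels.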

Experiments:
Test in all cases: cleaved PARP positive nuclei fraction relative to DMSO control; melanoma cells; higher = more apoptosis
Details in all cases: library dose: low library concentration; 72 h
MZ2-MEL = system: MZ2-MEL
MeWo = system: MeWo
RPMI7951 = system: RPMI7951
RVH-421 = system: RVH-421
SkMel28 = system: SkMel28
SkMel2 = system: SkMel2
SkMel30 = system: SkMel30
UACC62 = system: UACC62
WM115 = system: WM115
WM1716 = system: WM1716
WM1745 = system: WM1745
WM3526 = system: WM3526
WM3619 = system: WM3619
WM451Lu = system: WM451Lu

| Structure (SMILES) | cleaved PARP positive nuclei fraction (MZ2-MEL) | cleaved PARP positive nuclei fraction (MeWo) | cleaved PARP positive nuclei fraction (RPMI7951) | cleaved PARP positive nuclei fraction (RVH-421) | cleaved PARP positive nuclei fraction (SkMel28) | cleaved PARP positive nuclei fraction (SkMel2) | cleaved PARP positive nuclei fraction (SkMel30) | cleaved PARP positive nuclei fraction (UACC62) | cleaved PARP positive nuclei fraction (WM115) | cleaved PARP positive nuclei fraction (WM1716) | cleaved PARP positive nuclei fraction (WM1745) | cleaved PARP positive nuclei fraction (WM3526) | cleaved PARP positive nuclei fraction (WM3619) | cleaved PARP positive nuclei fraction (WM451Lu) |
| --- | --- | --- | --- | --- | --- | --- | --- | --- | --- | --- | --- | --- | --- | --- |
| O=C(Nc1cc(C(F)(F)F)cc(C(F)(F)F)c1)c1cc(Cl)ccc1O + Cn1c(=O)n(-c2ccc(C(C)(C)C#N)cc2)c2c3cc(-c4cnc5ccccc5c4)ccc3ncc21 [NVP-BEZ235] (first compound 0.016 µM, partner dose 0.004 µM) | 88.6% | 66.5% | 108% | 113% | 73.5% | 88.4% | 69.4% | 107% | 110% | 46.7% | 102% | 76.4% | 162% | 96.6% |
| COc1cc([C@@H]2c3cc4c(cc3[C@@H](O[C@@H]3O[C@@H]5CO[C@@H](C)O[C@H]5[C@H](O)[C@H]3O)[C@H]3COC(=O)[C@H]23)OCO4)cc(OC)c1O [etoposide] + C#Cc1cccc(Nc2ncnc3cc(OCCOC)c(OCCOC)cc23)c1 [erlotinib] (first compound 0.02 µM, partner dose 0.8 µM) | 77.1% | 53.2% | 212% | 144% | 97.9% | 5980% | 42.9% | 314% | 142% | 143% | 102% | 167% | 109% | 92.4% |
| COc1cc([C@@H]2c3cc4c(cc3[C@@H](O[C@@H]3O[C@@H]5CO[C@@H](C)O[C@H]5[C@H](O)[C@H]3O)[C@H]3COC(=O)[C@H]23)OCO4)cc(OC)c1O [etoposide] + Cn1cnc2c(F)c(Nc3ccc(Br)cc3Cl)c(C(=O)NOCCO)cc21 [selumetinib] (first compound 0.02 µM, partner dose 0.015 µM) | 234% | 31.2% | 24.1% | 745% | 58.8% | 154% | 69.8% | 88.2% | 26.3% | 43.5% | 110% | 45.9% | 111% | 44.3% |
| O=c1[nH]nc(Sc2ncc([N+](=O)[O-])s2)n1-c1ccc2c(c1)OCCO2 + CC1(C)CCC(c2ccc(Cl)cc2)=C(CN2CCN(c3ccc(C(=O)NS(=O)(=O)c4ccc(N[C@H](CCN5CCOCC5)CSc5ccccc5)c(S(=O)(=O)C(F)(F)F)c4)cc3)CC2)C1 [ABT263] (first compound 0.2 µM, partner dose 0.4 µM) | 335% | 309% | 136% | 219% | 89.8% | 149% | 182% | 75.7% | 353% | 47.6% | 540% | 46.8% | 146% | 55.6% |
| Cc1ccc(Nc2nccc(N(C)c3ccc4c(C)n(C)nc4c3)n2)cc1S(N)(=O)=O [Pazopanib] + C[C@@H](N)c1ccc(C(=O)Nc2ccnc3[nH]ccc23)cc1 [RKI983] (first compound 0.4 µM, partner dose 0.4 µM) | 117% | 139% | 58.4% | 174% | 129% | 75.3% | 57.6% | 84.2% | 115% | 136% | 83.9% | 19.8% | 86.2% | 83.9% |
| CC[C@]1(O)C[C@H]2CN(CCc3c([nH]c4ccccc34)[C@@](C(=O)OC)(c3cc4c(cc3OC)N(C=O)[C@H]3[C@@](O)(C(=O)OC)[C@H](OC(C)=O)[C@]5(CC)C=CCN6CC[C@]43[C@@H]65)C2)C1 [vincristine] + C#Cc1cccc(Nc2ncnc3cc(OCCOC)c(OCCOC)cc23)c1 [erlotinib] (first compound 0.0001 µM, partner dose 0.8 µM) | 220% | 1690% | 327% | 42.8% | 138% | 373% | 310% | 311% | 1850% | 433% | 157% | 264% | 216% | 119% |
| N#CC[C@H](C1CCCC1)n1cc(-c2ncnc3[nH]ccc23)cn1 [ruxolitinib] + CN(c1ncccc1CNc1nc(Nc2ccc3c(c2)CC(=O)N3)ncc1C(F)(F)F)S(C)(=O)=O [PF562271] (first compound 1 µM, partner dose 0.08 µM) | 102% | 42.4% | 133% | 45.4% | 90.5% | 53.8% | 81.1% | 105% | 257% | 41.9% | 91.3% | 83.6% | 88.9% | 57.3% |
| Cc1cn(-c2cc(NC(=O)c3ccc(C)c(Nc4nccc(-c5cccnc5)n4)c3)cc(C(F)(F)F)c2)cn1 [nilotinib] + CC(=O)c1c(C)c2cnc(Nc3ccc(N4CCNCC4)cn3)nc2n(C2CCCC2)c1=O [palbociclib] (first compound 0.2 µM, partner dose 0.04 µM) | 92.3% | 37.6% | 107% | 93.4% | 77.4% | 32.6% | 43.9% | 44.6% | 84.3% | 120% | 132% | 48.7% | 95.5% | 69.7% |
| O=C(Nc1cc(C(F)(F)F)cc(C(F)(F)F)c1)c1cc(Cl)ccc1O + O=C(O)[C@@H]1[O][Sb](=[O])([O][Sb]2(=[O])[O][C@H]([C@H](O)CO)[C@H](O)[C@H](C(=O)O)[O]2)[O][C@H]([C@H](O)CO)[C@@H]1O [stibogluconate] (first compound 0.016 µM, partner dose 2 µM) | 270% | 112% | 33.4% | 65.8% | 42.6% | 64% | 231% | 23.3% | 122% | 139% | 108% | 19.7% | 97.3% | 25.3% |
| Cc1cc(Nc2cc(N3CCN(C)CC3)nc(Sc3ccc(NC(=O)C4CC4)cc3)n2)n[nH]1 [Tozasertib] + C#Cc1cccc(Nc2ncnc3cc(OCCOC)c(OCCOC)cc23)c1 [erlotinib] (first compound 0.006 µM, partner dose 0.8 µM) | 73.2% | 146% | 40.2% | 55.6% | 75.2% | 47.7% | 129% | 67% | 41.7% | 125% | 109% | 340% | 74.8% | 59.5% |
| COc1cc([C@@H]2c3cc4c(cc3[C@@H](O[C@@H]3O[C@@H]5CO[C@@H](C)O[C@H]5[C@H](O)[C@H]3O)[C@H]3COC(=O)[C@H]23)OCO4)cc(OC)c1O [etoposide] + Cc1nc(Nc2ncc(C(=O)Nc3c(C)cccc3Cl)s2)cc(N2CCN(CCO)CC2)n1 [dasatanib] (first compound 0.02 µM, partner dose 0.004 µM) | 105% | 105% | 116% | 283% | 87.2% | 130% | 123% | 269% | 158% | 177% | 151% | 115% | 79.4% | 49.1% |
| O=c1[nH]nc(Sc2ncc([N+](=O)[O-])s2)n1-c1ccc2c(c1)OCCO2 + CC(C)C[C@H](NC(=O)[C@H](Cc1ccccc1)NC(=O)c1cnccn1)B(O)O [Bortezomib] (first compound 0.2 µM, partner dose 0.001 µM) | 74.7% | 61.9% | 133% | 29.6% | 67.6% | 52.2% | 134% | 36.4% | 55.2% | 71.7% | 107% | 256% | 136% | 95.9% |
| Cc1cc(Nc2cc(N3CCN(C)CC3)nc(Sc3ccc(NC(=O)C4CC4)cc3)n2)n[nH]1 [Tozasertib] + COCC[n+]1c2c(n(Cc3cnccn3)c1C)C(=O)c1ccccc1C2=O [YM155] (first compound 0.006 µM, partner dose 0.0004 µM) | 156% | 103% | 103% | 71.5% | 81.4% | 62.3% | 78.8% | 92.7% | 155% | 80.7% | 101% | 36.7% | 160% | 103% |
| Cc1cc(Nc2cc(N3CCN(C)CC3)nc(Sc3ccc(NC(=O)C4CC4)cc3)n2)n[nH]1 [Tozasertib] + Cn1sc(=O)n(Cc2ccccc2)c1=O [TDZD-8] (first compound 0.006 µM, partner dose 0.4 µM) | 56.2% | 79.8% | 137% | 332% | 100% | 83.7% | 41.3% | 67.5% | 112% | 61.6% | 102% | 45.6% | 85% | 27.3% |
| Cc1cc(Nc2cc(N3CCN(C)CC3)nc(Sc3ccc(NC(=O)C4CC4)cc3)n2)n[nH]1 [Tozasertib] + CS(=O)(=O)CCNCc1ccc(-c2ccc3ncnc(Nc4ccc(OCc5cccc(F)c5)c(Cl)c4)c3c2)o1 [lapatinib] (first compound 0.006 µM, partner dose 0.8 µM) | 51.1% | 114% | 63.3% | 33.1% | 71.2% | 32.7% | 93.8% | 48.4% | 52.1% | 96.6% | 105% | 52.8% | 87.7% | 43.2% |
| CCCCCCCCCCCCCCCCCCOP(=O)([O-])OC1CC[N+](C)(C)CC1 [Perifosine] + Nc1ccn([C@@H]2O[C@H](CO)[C@@H](O)C2(F)F)c(=O)n1 [gemcitabine] (first compound 0.4 µM, partner dose 0.0004 µM) | 122% | 145% | 59.8% | 124% | 29.5% | 47.6% | 84.3% | 23.8% | 170% | 81.1% | 126% | 291% | 78.9% | 89.1% |
| Cc1ccc(Nc2nccc(N(C)c3ccc4c(C)n(C)nc4c3)n2)cc1S(N)(=O)=O [Pazopanib] + OCc1c[nH]c2ccccc12 [Indole-3-carbinol] (first compound 0.4 µM, partner dose 0.8 µM) | 99.6% | 89.9% | 105% | 132% | 72.9% | 120% | 44.5% | 50.9% | 91% | 162% | 105% | 42.2% | 99.7% | 46.2% |
| Cc1cn(-c2cc(NC(=O)c3ccc(C)c(Nc4nccc(-c5cccnc5)n4)c3)cc(C(F)(F)F)c2)cn1 [nilotinib] + Cn1nnc2c(C(N)=O)ncn2c1=O [temozolomide] (first compound 0.2 µM, partner dose 2 µM) | 17.6% | 99.7% | 90.5% | 102% | 85.5% | 324% | 24.8% | 107% | 89.8% | 233% | 114% | 102% | 84.5% | 21.8% |

Rewritten with bars between the fields: part of the list above
Structure (SMILES) | cleaved PARP positive nuclei fraction (MZ2-MEL) | cleaved PARP positive nuclei fraction (MeWo) | cleaved PARP positive nuclei fraction (RPMI7951) | cleaved PARP positive nuclei fraction (RVH-421) | cleaved PARP positive nuclei fraction (SkMel28) | cleaved PARP positive nuclei fraction (SkMel2) | cleaved PARP positive nuclei fraction (SkMel30) | cleaved PARP positive nuclei fraction (UACC62) | cleaved PARP positive nuclei fraction (WM115) | cleaved PARP positive nuclei fraction (WM1716) | cleaved PARP positive nuclei fraction (WM1745) | cleaved PARP positive nuclei fraction (WM3526) | cleaved PARP positive nuclei fraction (WM3619) | cleaved PARP positive nuclei fraction (WM451Lu)
CC[C@]1(O)C[C@H]2CN(CCc3c([nH]c4ccccc34)[C@@](C(=O)OC)(c3cc4c(cc3OC)N(C=O)[C@H]3[C@@](O)(C(=O)OC)[C@H](OC(C)=O)[C@]5(CC)C=CCN6CC[C@]43[C@@H]65)C2)C1 [vincristine] + C#Cc1cccc(Nc2ncnc3cc(OCCOC)c(OCCOC)cc23)c1 [erlotinib] (first compound 0.0001 µM, partner dose 0.8 µM) | 220% | 1690% | 327% | 42.8% | 138% | 373% | 310% | 311% | 1850% | 433% | 157% | 264% | 216% | 119%
N#CC[C@H](C1CCCC1)n1cc(-c2ncnc3[nH]ccc23)cn1 [ruxolitinib] + CN(c1ncccc1CNc1nc(Nc2ccc3c(c2)CC(=O)N3)ncc1C(F)(F)F)S(C)(=O)=O [PF562271] (first compound 1 µM, partner dose 0.08 µM) | 102% | 42.4% | 133% | 45.4% | 90.5% | 53.8% | 81.1% | 105% | 257% | 41.9% | 91.3% | 83.6% | 88.9% | 57.3%
Cc1cn(-c2cc(NC(=O)c3ccc(C)c(Nc4nccc(-c5cccnc5)n4)c3)cc(C(F)(F)F)c2)cn1 [nilotinib] + CC(=O)c1c(C)c2cnc(Nc3ccc(N4CCNCC4)cn3)nc2n(C2CCCC2)c1=O [palbociclib] (first compound 0.2 µM, partner dose 0.04 µM) | 92.3% | 37.6% | 107% | 93.4% | 77.4% | 32.6% | 43.9% | 44.6% | 84.3% | 120% | 132% | 48.7% | 95.5% | 69.7%
O=C(Nc1cc(C(F)(F)F)cc(C(F)(F)F)c1)c1cc(Cl)ccc1O + O=C(O)[C@@H]1[O][Sb](=[O])([O][Sb]2(=[O])[O][C@H]([C@H](O)CO)[C@H](O)[C@H](C(=O)O)[O]2)[O][C@H]([C@H](O)CO)[C@@H]1O [stibogluconate] (first compound 0.016 µM, partner dose 2 µM) | 270% | 112% | 33.4% | 65.8% | 42.6% | 64% | 231% | 23.3% | 122% | 139% | 108% | 19.7% | 97.3% | 25.3%
Cc1cc(Nc2cc(N3CCN(C)CC3)nc(Sc3ccc(NC(=O)C4CC4)cc3)n2)n[nH]1 [Tozasertib] + C#Cc1cccc(Nc2ncnc3cc(OCCOC)c(OCCOC)cc23)c1 [erlotinib] (first compound 0.006 µM, partner dose 0.8 µM) | 73.2% | 146% | 40.2% | 55.6% | 75.2% | 47.7% | 129% | 67% | 41.7% | 125% | 109% | 340% | 74.8% | 59.5%
